Data: PubChem BioAssay AID1347075 (National Center for Advancing Translational Sciences (NCATS), 2019)
Screen size: about 400,000 compounds; about 5,500 (1.4%) were called active. The shares of active, inactive and inconclusive entries below differ from those in the screen. The call rests on the fitted dose curve; in most records, active means well fitted cell-killing curve with a large enough effect; inconclusive means small, poorly fitted or top-dose-only effect, or effect the other way; inactive means flat fitted curve, though single readings scatter. A potency beside an inconclusive call is a rough fit, not a confirmed value.

Experiment: qHTS assay for MDR1-selective chemotherapeutics: Primary screen using the parental adenocarcinoma cell KB-3-1; further: nearly all actives have a fitted effect of over 60% in size
Conditions: KB-3-1 viability, CellTiter-Glo ATP luminescence, 72 h; activity change, negative = cytotoxic: at 46.1 µM (top of the series)
In short: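 Cells are dispensed, compounds pinned in, plates held at 37 °C for 72 h, then CellTiter-Glo is added and luminescence read after 10 minutes. Cell line: parental KB-3-1 in phenol-red-free DMEM, 10% FBS.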
On the % scale 0 is the no-effect control and ±100 the full control effect; potency means the concentration at half of the fitted maximal effect.

Row | SMILES | Potency | activity change, negative = cytotoxic
1 | Cc1ccc(C)c(CN2CCC(CNC(=O)Nc3ccc(C)c(C)c3)CC2)c1 | inconclusive: 18.4 µM [cytotoxic, single point] | –
2 | COc1ccc(CCNc2ncccc2C#N)cc1OC | inconclusive: 20.6 µM [rising, single point] | –
3 | CN(C(=O)CCN1C(=O)/C(=C/c2ccc(F)cc2)SC1=S)C1CCS(=O)(=O)C1 (stereo not given) | inconclusive: 32.6 µM [cytotoxic, single point] | –
4 | COc1ccccc1N1C(=O)c2ccccc2NC1c1ccc(O)cc1 (stereo not given) | inconclusive: 29.1 µM [rising, single point] | –
5 | CCCCC[C@H](C)N1C[C@H](COCc2ccccc2)Oc2cc(N3CCC[C@H]3COC)ccc2S1(=O)=O | – | inactive: -15.8%
6 | COC(=O)c1cccc(NC(=O)NC(=O)c2ccc(Cl)cc2)c1 | – | inactive: -20%
7 | COc1ccc(CCn2nnnc2CN2CCN(C(=O)c3ccco3)CC2)cc1OC | inconclusive: 18.4 µM [rising, single point] | –
8 | COc1ccccc1NC(=O)Nc1nc(CC(=O)N2CCN(c3ccccc3F)CC2)cs1 | inconclusive: 29.1 µM [cytotoxic, single point] | –
9 | O=S(=O)(c1ccc(Cl)cc1)c1nc(-c2cccc(Br)c2)oc1NCc1ccccc1 | inconclusive: 32.6 µM [cytotoxic, single point] | –
10 | COc1ccccc1NC(=O)Nc1ccccc1C(=O)NCCCN1CCOCC1 | inconclusive: 29.1 µM [rising, single point] | –
11 | CCN(CC)S(=O)(=O)c1ccc(NC2CCCc3ccccc32)nc1 (stereo not given) | inconclusive: 29.1 µM [cytotoxic, single point] | –
12 | O=C1c2cccc3c(N4CCOCC4)c([N+](=O)[O-])cc(c23)C(=O)N1c1cccc2ccccc12 | inconclusive: 18.4 µM [cytotoxic, single point] | –
13 | Cc1ccc2cc(CN(C(=O)c3ccco3)c3ccccc3)c(=O)[nH]c2c1 | – | inactive: -20%
14 | Clc1ccc(-c2cc(CN3CCCCC3)no2)cc1Cl | – | inactive: -6.83%
15 | COc1ccc(OC)c2sc(N(CCCN(C)C)C(=O)CCS(=O)(=O)c3ccccc3)nc12 | active: 16.4 µM | –
16 | O=C(O)c1ccc(NS(=O)(=O)Cc2ccc(Cl)c(Cl)c2)cc1 | inconclusive: 29.1 µM [rising, single point] | –
17 | O=C1C=C(Nc2ccc(O)cc2)C(=O)c2ccccc21 | inconclusive: 25.9 µM [cytotoxic, single point] | –
18 | COc1cc(C2C(C#N)=C(N)Oc3c2ccc2ccccc32)ccc1OCC(=O)Nc1cccc(C)c1 (stereo not given) | inconclusive: 29.1 µM [cytotoxic, single point] | –
19 | CC(=O)Nc1cccc(-c2ccnc3c2CC(C)(C(=O)Nc2ccc(C(C)C)cc2)O3)c1 (stereo not given) | inconclusive: 29.1 µM [cytotoxic, single point] | –
20 | CC1(Cc2ccccc2C#N)C(=O)Nc2ccc(-c3ccc4[nH]ccc4c3)cc21 (stereo not given) | active: 6.51 µM | –
21 | O=C(Cc1cccs1)Nc1nc(-c2ccccc2)cs1 | inconclusive: 20.6 µM [cytotoxic, single point] | –
22 | CCc1nc(C)cn1S(=O)(=O)c1ccc(Cl)c(Cl)c1Cl | inconclusive: 23.1 µM [cytotoxic, single point] | –
23 | FC(F)Sc1ccc(NC(=S)NC(c2ccccc2)c2ccccc2)cc1 | inconclusive: 29.1 µM [cytotoxic, single point] | –
24 | CCOc1ccc(C(=O)Nc2cccc(C(C)=O)c2)cc1[N+](=O)[O-] | inconclusive: 23.1 µM [cytotoxic, single point] | –

Rewritten in markdown: entries from further up.

| Row | SMILES | Potency | activity change, negative = cytotoxic |
| --- | --- | --- | --- |
| 4 | COc1ccccc1N1C(=O)c2ccccc2NC1c1ccc(O)cc1 (stereo not given) | inconclusive: 29.1 µM [rising, single point] | – |
| 5 | CCCCC[C@H](C)N1C[C@H](COCc2ccccc2)Oc2cc(N3CCC[C@H]3COC)ccc2S1(=O)=O | – | inactive: -15.8% |

(further entries)

Row | SMILES | Potency | activity change, negative = cytotoxic
25 | COc1ccc(C2NC(=S)NC(C)=C2C(=O)c2ccccc2)cc1OC (stereo not given) | inconclusive: 10.3 µM [rising, partial curve, poor fit] | –
26 | Cc1ccc(S(=O)(=O)n2nc(C)c(S(=O)(=O)N3CCCCCC3)c2C)cc1C | – | inactive: -3.52%
27 | CCCCc1nnc(NC(=O)c2cccc(S(=O)(=O)N3CCN(C)CC3)c2)s1 | inconclusive: 0.206 µM [cytotoxic, full curve] | –
28 | Cc1cc(=O)[nH]c(SCC(=O)C23CC4CC(CC(C4)C2)C3)c1C#N | inconclusive: 29.1 µM [cytotoxic, single point] | –
29 | Cc1ccc(S(=O)(=O)Nc2nnc(C3CCCCC3)s2)cc1 | – | inactive: 1.72%
30 | CC(C)(C)NC(=O)C(c1ccccc1)n1c(=O)c(-c2cc3ccccc3[nH]2)nc2ccccc21 (stereo not given) | inconclusive: 20.6 µM [cytotoxic, single point] | –
31 | N#CC1=C(S)N(c2ccc(F)cc2)C(c2cccs2)NC1=O (stereo not given) | – | inactive: 4.73%
32 | O=C(O)CNC(=O)c1ccc(NC(=O)/C(=C/c2cccc([N+](=O)[O-])c2)NC(=O)c2ccco2)cc1 | – | inactive: 15%
33 | CC(=O)N/N=C(\C)c1ccc2c(c1)OCCO2 | inconclusive: 25.9 µM [cytotoxic, single point] | –
34 | Cc1cc(NC(=O)Nc2nnc(N3CCCCCC3)s2)ccc1Br | – | inactive: -0.423%
35 | Cc1cnc(C(=O)N2CCc3c([nH]c4ccccc34)C2c2ccc(F)cc2)cn1 (stereo not given) | inconclusive: 20.6 µM [cytotoxic, partial curve, poor fit] | –
36 | CC(C)C[C@@H](CN1CCC[C@@H]1CN1C(=O)C(=O)NC[C@@H]1Cc1ccccc1)N1C[C@H](Cc2ccccc2)N(CC2CCCCC2)C(=O)C1=O | inconclusive: 25.9 µM [cytotoxic, single point] | –
37 | CCOc1ccc(NCc2cccn2-c2nnc(N3CCC(C(=O)NCCCN4CC(C)CC(C)C4)CC3)s2)cc1 (stereo not given) | – | inactive: -18.8%
38 | Cc1ccc(S(=O)(=O)N(CCc2ccccc2)CC(=O)Nc2ccccc2C)cc1 | inconclusive: 18.4 µM [cytotoxic, single point] | –
39 | O=S(=O)(c1ccc(Oc2ccc(S(=O)(=O)N3CCOCC3)cc2)cc1)N1CCOCC1 | inconclusive: 6.51 µM [cytotoxic, partial curve] | –
40 | O=C(NCc1cccnc1)c1ccccc1NS(=O)(=O)c1ccc(Br)cc1 | – | inconclusive: -2.2%
41 | COc1ccc(CCNC(=O)c2ccc3c(c2)N(Cc2ccccc2)CCS3)cc1OC | – | inactive: 18.9%
42 | COc1ccc(-c2c(C)nn3c(N4CCCCCC4)cc(C)nc23)cc1OC | active: 18.4 µM | –
43 | C=CCC(COCc1ccccc1)NS(=O)(=O)c1ccccc1Br (stereo not given) | inconclusive: 29.1 µM [cytotoxic, single point] | –
44 | Cc1ccc2[nH]c(=O)c(CN(CCCN(C)C)C(=O)Nc3cccc(Cl)c3)cc2c1 | inconclusive: 29.1 µM [cytotoxic, single point] | –
45 | CC1(C)CC(=O)/C(=N/Nc2ccc(Cl)cc2)CO1 | inconclusive: 29.1 µM [cytotoxic, single point] | –
46 | CN(Cc1ccccc1)C(=O)c1ccccc1C(=O)OCC(=O)N(Cc1ccccc1)C(C)(C)C | inconclusive: 16.4 µM [cytotoxic, partial curve, poor fit] | –
47 | Cc1csc(NC(=O)CCCNC(=O)c2ccc(Cl)cc2)n1 | inconclusive: 13 µM [rising, partial curve] | –
48 | Cc1ccc2nc(-c3ccc(Cl)s3)c(Nc3ccc4c(c3)OCCO4)n2c1 | – | inactive: -2.44%

Row | SMILES | Potency | activity change, negative = cytotoxic
49 | CCCN(CCC)CC(O)CN(c1ccccc1)S(=O)(=O)c1ccc(C)cc1 (stereo not given) | – | inactive: 6.87%
50 | Nc1nnc(-c2ccc([N+](=O)[O-])o2)s1 | inconclusive: 5.8 µM [cytotoxic, full curve, poor fit] | –
51 | Nc1nn(-c2ccccc2)c(N)c1N=Nc1ccc2c(c1)OCO2 | active: 7.31 µM | –
52 | CCc1ccc2c(CN3CCc4cc(OC)c(OC)cc4C3)cc(=O)oc2c1 | – | inactive: 4.56%
53 | Cc1c(F)cccc1NS(=O)(=O)c1ccc(OCCNS(C)(=O)=O)cc1 | inconclusive: 32.6 µM [cytotoxic, single point] | –
54 | O=C(NC(c1ccc(Cl)cc1)c1cnccn1)C1CCN(Cc2cccc(C(F)(F)F)c2)CC1 (stereo not given) | inconclusive: 29.1 µM [cytotoxic, single point] | –
55 | CCCNC(=O)COc1ccc(-c2nn(C)c(=O)c3ccccc23)cc1 | – | inactive: -17.6%
56 | C[C@H](CO)N1C[C@H](C)[C@@H](CN(C)S(=O)(=O)c2ccc3c(c2)OCCCO3)OCc2cn(nn2)CCCC1=O | – | inactive: -8.3%
57 | CCCCC[C@@H](/C=C/C1C(=O)C=C[C@H]1C/C=C\CCCC(=O)OC)OC(C)=O (stereo not given in full) | inconclusive: 29.1 µM [cytotoxic, single point] | –
58 | CCOC(=O)C1=CN(Cc2ccc(OC)cc2)C=C(C(=O)OCC)C1c1cccs1 | – | inactive: -16.7%
59 | Clc1ccc2c(c1)-c1nnc(Br)n1-c1ccccc1S2 | – | inactive: -1.35%
60 | Clc1ncnc2c1oc1ccccc12 | inconclusive: 18.4 µM [cytotoxic, single point] | –
61 | COC(=O)c1ccc(C(=O)N2CCCC(CNC(=O)c3ccccc3Cl)C2)cc1 (stereo not given) | – | inactive: -5.47%
62 | CCC(=O)N1CCC1(C)C(=O)Nc1cccc2c1CCCC2 (stereo not given) | – | inactive: 0%
63 | O=C(Nc1cccc(-c2nnc(-c3ccco3)o2)c1)c1ccccc1 | inconclusive: 29.1 µM [cytotoxic, single point] | –
64 | CCN(CC)c1ccc(/C=N/NC(=O)c2cccc(S(=O)(=O)N3CCOCC3)c2)c(O)c1 | active: 7.31 µM | –
65 | Cn1cc(C(=O)C(=O)N2CCCC2)c2ccccc21 | – | inactive: 13%
66 | O=C(NCCN1CCOCC1)NC1(C(F)(F)F)Oc2ccc(Cl)cc2O1 (stereo not given) | active: 4.61 µM | –
67 | N#C/C(=C\c1cccnc1)C(=O)Nc1ccccc1[N+](=O)[O-] | – | inactive: 1.29%
68 | CCn1c(CNS(=O)(=O)c2ccc(Br)cc2)n[nH]c1=S | – | inactive: -5.35%
69 | COc1ccc(/C=N/NC(=O)c2ccccc2Cl)cc1CSc1nc2ccccc2s1 | active: 5.8 µM | –
70 | COc1cccc(CNS(=O)(=O)c2ccc3c(c2)CC(C)N3C(=O)C2CCC2)c1 (stereo not given) | inconclusive: 29.1 µM [cytotoxic, single point] | –

2 entries from above in a different format:
Clc1ccc(-c2cc(CN3CCCCC3)no2)cc1Cl
  activity change, negative = cytotoxic: inactive: -6.83%
COc1ccc(OC)c2sc(N(CCCN(C)C)C(=O)CCS(=O)(=O)c3ccccc3)nc12
  Potency: active: 16.4 µM
